# Reference: the supplement of paper PMC11732987, “Enantioselective OTUD7B fragment discovery through chemoproteomics screening and high-throughput optimisation” (Communications Chemistry, 2025)
# By UniProt entry, the sequences of proteins in these tests, tags left out. Where a name states a change or a piece, a line headed by the entry shows the natural chain unless it says otherwise.
# UniProt Q5T9L3: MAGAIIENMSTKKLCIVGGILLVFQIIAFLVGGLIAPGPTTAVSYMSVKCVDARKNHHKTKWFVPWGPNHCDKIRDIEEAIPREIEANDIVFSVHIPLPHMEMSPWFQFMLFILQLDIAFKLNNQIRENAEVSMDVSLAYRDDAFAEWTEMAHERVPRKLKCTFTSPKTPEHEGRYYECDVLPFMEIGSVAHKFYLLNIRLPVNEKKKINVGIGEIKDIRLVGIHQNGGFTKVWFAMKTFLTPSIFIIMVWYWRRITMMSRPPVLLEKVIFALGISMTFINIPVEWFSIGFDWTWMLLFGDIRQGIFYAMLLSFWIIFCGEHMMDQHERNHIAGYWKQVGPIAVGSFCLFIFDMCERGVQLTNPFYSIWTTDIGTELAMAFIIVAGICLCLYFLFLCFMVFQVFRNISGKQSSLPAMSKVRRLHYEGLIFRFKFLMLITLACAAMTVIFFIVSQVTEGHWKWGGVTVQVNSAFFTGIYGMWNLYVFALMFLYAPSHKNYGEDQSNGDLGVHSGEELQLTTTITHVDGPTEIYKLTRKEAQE
# UniProt Q9BYP7: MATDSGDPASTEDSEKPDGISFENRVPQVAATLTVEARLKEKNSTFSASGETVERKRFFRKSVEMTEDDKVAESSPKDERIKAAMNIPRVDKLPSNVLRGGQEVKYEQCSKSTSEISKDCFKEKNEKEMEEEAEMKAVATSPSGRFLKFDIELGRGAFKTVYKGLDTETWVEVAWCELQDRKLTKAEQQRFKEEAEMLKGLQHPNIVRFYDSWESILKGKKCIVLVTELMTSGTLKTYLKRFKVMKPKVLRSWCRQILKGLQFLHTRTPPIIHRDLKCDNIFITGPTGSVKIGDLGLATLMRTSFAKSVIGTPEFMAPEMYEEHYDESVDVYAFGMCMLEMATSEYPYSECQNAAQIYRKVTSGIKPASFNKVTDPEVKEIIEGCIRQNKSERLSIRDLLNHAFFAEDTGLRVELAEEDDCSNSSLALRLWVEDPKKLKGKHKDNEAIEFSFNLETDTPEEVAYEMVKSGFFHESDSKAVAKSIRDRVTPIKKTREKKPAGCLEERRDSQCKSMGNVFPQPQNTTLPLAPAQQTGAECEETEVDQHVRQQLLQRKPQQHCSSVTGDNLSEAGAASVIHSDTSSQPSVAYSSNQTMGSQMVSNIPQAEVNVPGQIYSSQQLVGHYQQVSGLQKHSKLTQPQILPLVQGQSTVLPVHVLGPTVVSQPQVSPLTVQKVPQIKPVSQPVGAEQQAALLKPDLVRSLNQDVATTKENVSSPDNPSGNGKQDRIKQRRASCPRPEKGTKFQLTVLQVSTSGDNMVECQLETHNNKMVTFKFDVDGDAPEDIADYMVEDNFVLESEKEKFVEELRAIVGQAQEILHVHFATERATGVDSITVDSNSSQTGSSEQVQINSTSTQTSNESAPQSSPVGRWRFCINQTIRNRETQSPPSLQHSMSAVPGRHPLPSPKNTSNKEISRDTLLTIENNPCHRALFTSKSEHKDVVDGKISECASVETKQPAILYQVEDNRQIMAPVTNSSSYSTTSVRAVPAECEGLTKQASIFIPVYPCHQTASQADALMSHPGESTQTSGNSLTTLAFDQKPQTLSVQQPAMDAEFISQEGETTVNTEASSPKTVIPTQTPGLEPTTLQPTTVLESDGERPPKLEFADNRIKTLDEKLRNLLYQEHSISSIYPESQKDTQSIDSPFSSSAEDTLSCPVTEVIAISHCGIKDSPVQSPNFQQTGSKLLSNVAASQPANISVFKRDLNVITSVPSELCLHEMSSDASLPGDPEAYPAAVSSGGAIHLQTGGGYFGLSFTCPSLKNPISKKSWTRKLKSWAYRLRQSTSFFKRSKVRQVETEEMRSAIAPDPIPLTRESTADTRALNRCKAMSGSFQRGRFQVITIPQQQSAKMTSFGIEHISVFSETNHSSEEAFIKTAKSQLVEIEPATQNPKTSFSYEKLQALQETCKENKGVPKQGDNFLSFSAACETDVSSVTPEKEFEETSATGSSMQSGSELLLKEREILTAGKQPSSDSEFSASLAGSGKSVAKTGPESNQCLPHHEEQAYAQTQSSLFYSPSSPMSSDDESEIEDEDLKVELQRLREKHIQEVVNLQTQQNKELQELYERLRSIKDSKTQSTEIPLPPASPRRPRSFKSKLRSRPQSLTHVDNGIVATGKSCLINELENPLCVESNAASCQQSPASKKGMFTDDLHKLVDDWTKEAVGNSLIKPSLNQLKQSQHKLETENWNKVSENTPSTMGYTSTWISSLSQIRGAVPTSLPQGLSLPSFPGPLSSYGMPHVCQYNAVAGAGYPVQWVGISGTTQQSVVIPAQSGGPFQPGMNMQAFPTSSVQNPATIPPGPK
# UniProt Q9Y3C0: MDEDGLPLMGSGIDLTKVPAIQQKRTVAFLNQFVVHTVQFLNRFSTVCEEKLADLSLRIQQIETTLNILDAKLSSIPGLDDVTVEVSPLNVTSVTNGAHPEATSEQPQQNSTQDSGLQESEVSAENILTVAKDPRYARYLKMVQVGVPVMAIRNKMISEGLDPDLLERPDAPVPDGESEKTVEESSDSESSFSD
# UniProt Q8TBZ3: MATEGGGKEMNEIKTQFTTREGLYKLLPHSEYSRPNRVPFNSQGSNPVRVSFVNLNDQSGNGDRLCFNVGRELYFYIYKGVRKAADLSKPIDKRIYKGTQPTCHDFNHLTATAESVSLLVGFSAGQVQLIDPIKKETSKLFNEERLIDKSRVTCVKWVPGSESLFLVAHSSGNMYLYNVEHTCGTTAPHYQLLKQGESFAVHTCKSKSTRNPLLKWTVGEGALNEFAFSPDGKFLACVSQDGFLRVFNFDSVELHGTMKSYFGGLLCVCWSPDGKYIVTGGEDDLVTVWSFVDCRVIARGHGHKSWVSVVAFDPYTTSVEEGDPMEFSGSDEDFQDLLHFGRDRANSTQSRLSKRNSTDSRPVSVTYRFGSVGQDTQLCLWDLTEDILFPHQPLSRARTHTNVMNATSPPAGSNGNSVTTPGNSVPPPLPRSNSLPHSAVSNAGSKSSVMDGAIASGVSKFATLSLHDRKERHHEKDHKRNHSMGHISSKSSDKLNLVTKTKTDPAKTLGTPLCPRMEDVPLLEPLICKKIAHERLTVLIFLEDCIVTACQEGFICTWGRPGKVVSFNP
# UniProt Q86Y07: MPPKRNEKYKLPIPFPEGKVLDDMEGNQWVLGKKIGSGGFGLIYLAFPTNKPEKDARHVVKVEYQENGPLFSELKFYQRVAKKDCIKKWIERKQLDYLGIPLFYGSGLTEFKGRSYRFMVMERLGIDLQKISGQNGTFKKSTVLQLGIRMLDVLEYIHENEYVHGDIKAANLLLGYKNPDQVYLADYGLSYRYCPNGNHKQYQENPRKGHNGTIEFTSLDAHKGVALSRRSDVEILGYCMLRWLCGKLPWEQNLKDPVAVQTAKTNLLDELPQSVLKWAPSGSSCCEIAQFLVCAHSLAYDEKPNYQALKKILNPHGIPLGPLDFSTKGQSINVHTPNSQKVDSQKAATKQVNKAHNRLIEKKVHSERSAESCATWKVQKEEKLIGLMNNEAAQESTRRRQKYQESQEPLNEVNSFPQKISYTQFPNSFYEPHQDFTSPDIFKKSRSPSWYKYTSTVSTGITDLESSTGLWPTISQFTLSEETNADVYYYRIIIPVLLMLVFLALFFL
# UniProt Q9NNW5: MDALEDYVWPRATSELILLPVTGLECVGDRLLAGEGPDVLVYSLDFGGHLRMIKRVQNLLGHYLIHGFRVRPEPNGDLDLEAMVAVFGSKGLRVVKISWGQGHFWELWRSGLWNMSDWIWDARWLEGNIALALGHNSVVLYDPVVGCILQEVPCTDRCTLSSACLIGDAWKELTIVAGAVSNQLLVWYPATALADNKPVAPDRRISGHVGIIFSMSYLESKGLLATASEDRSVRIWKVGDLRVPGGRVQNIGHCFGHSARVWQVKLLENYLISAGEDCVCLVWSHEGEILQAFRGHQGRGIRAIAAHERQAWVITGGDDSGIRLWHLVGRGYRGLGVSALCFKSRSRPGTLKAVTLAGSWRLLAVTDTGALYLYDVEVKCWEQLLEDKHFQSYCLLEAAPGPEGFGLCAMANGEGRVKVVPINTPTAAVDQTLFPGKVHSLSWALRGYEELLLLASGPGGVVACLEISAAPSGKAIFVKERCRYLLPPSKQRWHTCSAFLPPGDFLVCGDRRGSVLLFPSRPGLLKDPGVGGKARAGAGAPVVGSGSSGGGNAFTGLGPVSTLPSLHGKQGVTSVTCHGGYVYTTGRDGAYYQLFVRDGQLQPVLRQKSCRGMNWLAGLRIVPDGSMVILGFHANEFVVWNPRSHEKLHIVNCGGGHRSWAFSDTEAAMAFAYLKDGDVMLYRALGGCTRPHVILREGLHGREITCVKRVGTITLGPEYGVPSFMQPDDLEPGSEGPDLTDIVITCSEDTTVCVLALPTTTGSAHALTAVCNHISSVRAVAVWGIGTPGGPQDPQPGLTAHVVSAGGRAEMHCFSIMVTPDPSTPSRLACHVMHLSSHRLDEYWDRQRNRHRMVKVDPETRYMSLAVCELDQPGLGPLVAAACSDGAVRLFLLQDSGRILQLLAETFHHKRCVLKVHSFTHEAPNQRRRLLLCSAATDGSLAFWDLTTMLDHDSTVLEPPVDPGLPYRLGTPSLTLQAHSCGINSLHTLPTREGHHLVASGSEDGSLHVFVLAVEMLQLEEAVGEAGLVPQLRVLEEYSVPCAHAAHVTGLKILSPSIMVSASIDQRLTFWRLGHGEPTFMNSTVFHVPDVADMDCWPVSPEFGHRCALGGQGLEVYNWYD
# UniProt P27348: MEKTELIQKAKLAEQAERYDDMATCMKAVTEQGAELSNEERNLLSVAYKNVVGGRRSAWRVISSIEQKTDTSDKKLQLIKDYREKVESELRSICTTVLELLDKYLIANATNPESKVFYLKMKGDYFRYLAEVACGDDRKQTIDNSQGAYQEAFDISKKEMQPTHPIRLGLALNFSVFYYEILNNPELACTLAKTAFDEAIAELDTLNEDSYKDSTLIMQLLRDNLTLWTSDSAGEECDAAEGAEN
# UniProt Q8IWA0: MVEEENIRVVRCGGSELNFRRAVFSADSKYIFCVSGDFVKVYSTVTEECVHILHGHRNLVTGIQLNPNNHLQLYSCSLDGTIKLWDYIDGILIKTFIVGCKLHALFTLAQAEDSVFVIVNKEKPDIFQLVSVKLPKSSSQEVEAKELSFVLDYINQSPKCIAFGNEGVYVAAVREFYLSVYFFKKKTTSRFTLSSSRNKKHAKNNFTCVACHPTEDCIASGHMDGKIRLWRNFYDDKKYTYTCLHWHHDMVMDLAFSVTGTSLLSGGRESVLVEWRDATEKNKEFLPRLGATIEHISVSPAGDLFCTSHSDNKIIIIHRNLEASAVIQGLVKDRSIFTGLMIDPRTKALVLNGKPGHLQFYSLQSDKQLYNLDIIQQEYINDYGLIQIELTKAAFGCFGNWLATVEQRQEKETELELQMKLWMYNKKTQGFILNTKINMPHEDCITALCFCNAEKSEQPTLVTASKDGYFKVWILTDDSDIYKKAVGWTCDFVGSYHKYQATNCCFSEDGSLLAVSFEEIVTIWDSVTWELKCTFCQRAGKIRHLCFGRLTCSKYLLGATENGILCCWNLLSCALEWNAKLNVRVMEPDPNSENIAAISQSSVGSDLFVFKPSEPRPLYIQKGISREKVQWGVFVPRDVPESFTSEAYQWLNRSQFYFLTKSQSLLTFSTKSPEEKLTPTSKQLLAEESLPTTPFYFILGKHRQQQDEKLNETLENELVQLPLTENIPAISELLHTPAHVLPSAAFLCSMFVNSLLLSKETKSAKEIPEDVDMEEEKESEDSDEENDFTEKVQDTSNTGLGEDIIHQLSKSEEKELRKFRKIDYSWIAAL
# UniProt Q8N4Q0: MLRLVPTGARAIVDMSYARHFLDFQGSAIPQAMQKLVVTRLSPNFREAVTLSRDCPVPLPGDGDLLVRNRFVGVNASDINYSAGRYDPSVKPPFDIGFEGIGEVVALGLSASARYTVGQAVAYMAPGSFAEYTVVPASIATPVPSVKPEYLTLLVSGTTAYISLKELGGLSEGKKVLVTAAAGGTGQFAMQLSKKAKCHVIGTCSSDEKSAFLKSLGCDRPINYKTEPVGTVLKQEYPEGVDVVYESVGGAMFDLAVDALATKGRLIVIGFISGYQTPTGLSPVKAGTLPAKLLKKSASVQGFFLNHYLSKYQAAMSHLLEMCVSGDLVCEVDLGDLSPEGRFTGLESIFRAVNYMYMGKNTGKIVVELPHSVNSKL
# UniProt P61981: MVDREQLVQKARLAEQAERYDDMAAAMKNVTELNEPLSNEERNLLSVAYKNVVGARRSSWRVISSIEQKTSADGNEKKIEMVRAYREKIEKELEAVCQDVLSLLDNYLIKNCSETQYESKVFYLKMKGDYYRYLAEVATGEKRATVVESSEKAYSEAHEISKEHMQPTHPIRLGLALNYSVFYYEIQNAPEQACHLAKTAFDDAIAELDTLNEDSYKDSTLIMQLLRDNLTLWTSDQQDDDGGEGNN
# Some of the results follow. The data scatter; read single values as rough.
# Compound: ClCC(=O)N[C@@H]1CCCc2ccccc12
# Assay: log2 mean competition ratio of IA-DTB cysteine labelling (DMSO/compound) (log2 ratio); higher = stronger cysteine engagement by compound
# Settings: 50 µM; treatment time: 4 h; cell line lysate: HEK293T
# Method: (§1)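 IA-DTB competitive cysteine chemoproteomics in HEK293T RIPA lysate. Lysates were treated with compound 29 or 30 at 50 or 200 µM for 4 h, then IA-DTB (500 µM, 1 h), trypsin-digested, NeutrAvidin-enriched and analysed by diaPASEF. Competition ratio = intensity DMSO / intensity compound (n=4 treated, n=64 DMSO); binding: mean log2 CR ≥ 1 and p ≤ 0.05 plus QC filters. Target is the cysteine site.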
row,Target,log2 mean competition ratio
1,ZC3H3 C643 (UniProt Q8IXZ2),-0.105
2,YEATS2 C1173 (UniProt Q9ULM3),-0.181
3,WLS C162 (UniProt Q5T9L3),-0.0443
4,ZC3H11A C22 (UniProt O75152),-0.191
5,XPO5 C765 (UniProt Q9HAV4),-0.178
6,XRCC1 C362,0.194
7,XPO4 C796 (UniProt Q9C0E2),-0.306
8,XPO5 C37 (UniProt Q9HAV4),0.0545
9,YEATS2 C1232 (UniProt Q9ULM3),-0.115
10,WDTC1 C236 (UniProt Q8N5D0),-0.0123
11,VPS35L C588 (UniProt Q7Z3J2),0.105
12,WNK3 C502 (UniProt Q9BYP7),0.101
13,XPO7 C606,-0.139
14,WASHC3 C48 (UniProt Q9Y3C0),-0.26
15,WDR19 C979 (UniProt Q8NEZ3),0.101
16,WDR62 C1072 (UniProt O43379),0.155
17,WDR7 C234 (UniProt Q9Y4E6),-0.0344
18,WAPL C929 (UniProt Q7Z5K2),-0.121
19,YEATS2 C102 (UniProt Q9ULM3),0.674

row,Target,log2 mean competition ratio
1,XPO6 C547 (UniProt Q96QU8),0.0708
2,WDR20 C514 (UniProt Q8TBZ3),-0.0102
3,VPS35 C156,0.0833
4,ZC3H14 C693 (UniProt Q6PJT7),0.0679
5,VPS50 C218 (UniProt Q96JG6),0.276
6,WDR62 C599 (UniProt O43379),-0.223
7,ZC3H7A C506 (UniProt Q8IWR0),-0.156
8,WDR77 C26 (UniProt Q9BQA1),-0.15
9,XPO5 C736 (UniProt Q9HAV4),0.521
10,VRK2 C373 (UniProt Q86Y07),0.0681
11,WDR6 C653 (UniProt Q9NNW5),0.162
12,YWHAQ C25 (UniProt P27348),-0.155
13,XRCC1 C132,0.143
14,WDR75 C100 (UniProt Q8IWA0),0.0413
15,ZADH2 C218 (UniProt Q8N4Q0),0.0632
16,WDR75 C12 (UniProt Q8IWA0),0.258
17,YWHAG C112 (UniProt P61981),-0.0238
18,WARS1 C274,-0.2

# Same assay, conditions: 200 µM; treatment time: 4 h; cell line lysate: HEK293T
row,Target,log2 mean competition ratio
1,ZC3H3 C643 (UniProt Q8IXZ2),0.307
2,YEATS2 C1173 (UniProt Q9ULM3),0.258
3,WLS C162 (UniProt Q5T9L3),0.186
4,ZC3H11A C22 (UniProt O75152),0.17
5,XPO5 C765 (UniProt Q9HAV4),-0.0436
6,XRCC1 C362,-0.0792
7,XPO4 C796 (UniProt Q9C0E2),-0.325
8,XPO5 C37 (UniProt Q9HAV4),0.169
9,YEATS2 C1232 (UniProt Q9ULM3),0.154
10,WDTC1 C236 (UniProt Q8N5D0),-0.0819
11,VPS35L C588 (UniProt Q7Z3J2),-0.336
12,WNK3 C502 (UniProt Q9BYP7),0.331
13,XPO7 C606,-0.257
14,WASHC3 C48 (UniProt Q9Y3C0),-0.13
15,WDR19 C979 (UniProt Q8NEZ3),-0.18
16,WDR62 C1072 (UniProt O43379),0.308
17,WDR7 C234 (UniProt Q9Y4E6),-0.358
18,WAPL C929 (UniProt Q7Z5K2),-0.0312
19,YEATS2 C102 (UniProt Q9ULM3),-0.146

row,Target,log2 mean competition ratio
1,XPO6 C547 (UniProt Q96QU8),0.267
2,WDR20 C514 (UniProt Q8TBZ3),-0.508
3,VPS35 C156,-0.0282
4,ZC3H14 C693 (UniProt Q6PJT7),0.075
5,VPS50 C218 (UniProt Q96JG6),0.417
6,WDR62 C599 (UniProt O43379),-0.147
7,ZC3H7A C506 (UniProt Q8IWR0),0.0323
8,WDR77 C26 (UniProt Q9BQA1),-0.204
9,XPO5 C736 (UniProt Q9HAV4),-0.114
10,VRK2 C373 (UniProt Q86Y07),0.0963
11,WDR6 C653 (UniProt Q9NNW5),-0.492
12,YWHAQ C25 (UniProt P27348),-0.165
13,XRCC1 C132,-0.0373
14,WDR75 C100 (UniProt Q8IWA0),-0.0332
15,ZADH2 C218 (UniProt Q8N4Q0),0.152
16,WDR75 C12 (UniProt Q8IWA0),0.0646
17,YWHAG C112 (UniProt P61981),-0.207
18,WARS1 C274,-0.147

# Compound: ClCC(=O)N[C@H]1CCCc2ccccc12
# Assay: as above
# Settings: 50 µM; treatment time: 4 h; cell line lysate: HEK293T
# Method: as §1
row,Target,log2 mean competition ratio
1,ZC3H3 C643 (UniProt Q8IXZ2),0.121
2,YEATS2 C1173 (UniProt Q9ULM3),-0.0405
3,WLS C162 (UniProt Q5T9L3),0.115
4,ZC3H11A C22 (UniProt O75152),0.129
5,XPO5 C765 (UniProt Q9HAV4),-0.027
6,XRCC1 C362,-0.0916
7,XPO4 C796 (UniProt Q9C0E2),-0.455
8,XPO5 C37 (UniProt Q9HAV4),0.208
9,YEATS2 C1232 (UniProt Q9ULM3),0.14
10,WDTC1 C236 (UniProt Q8N5D0),0.212
11,VPS35L C588 (UniProt Q7Z3J2),-0.0998
12,WNK3 C502 (UniProt Q9BYP7),-0.249
13,XPO7 C606,-0.0372
14,WASHC3 C48 (UniProt Q9Y3C0),0.0338
15,WDR19 C979 (UniProt Q8NEZ3),-0.225
16,WDR62 C1072 (UniProt O43379),0.042
17,WDR7 C234 (UniProt Q9Y4E6),0.487
18,WAPL C929 (UniProt Q7Z5K2),0.0161
19,YEATS2 C102 (UniProt Q9ULM3),-0.711

row,Target,log2 mean competition ratio
1,XPO6 C547 (UniProt Q96QU8),0.064
2,WDR20 C514 (UniProt Q8TBZ3),0.269
3,VPS35 C156,0.105
4,ZC3H14 C693 (UniProt Q6PJT7),0.457
5,VPS50 C218 (UniProt Q96JG6),0.19
6,WDR62 C599 (UniProt O43379),-0.336
7,ZC3H7A C506 (UniProt Q8IWR0),0.0151
8,WDR77 C26 (UniProt Q9BQA1),0.143
9,XPO5 C736 (UniProt Q9HAV4),0.371
10,VRK2 C373 (UniProt Q86Y07),0.0325
11,WDR6 C653 (UniProt Q9NNW5),0.317
12,YWHAQ C25 (UniProt P27348),-0.15
13,XRCC1 C132,-0.0679
14,WDR75 C100 (UniProt Q8IWA0),0.0668
15,ZADH2 C218 (UniProt Q8N4Q0),-0.18
16,WDR75 C12 (UniProt Q8IWA0),0.0321
17,YWHAG C112 (UniProt P61981),-0.276
18,WARS1 C274,-0.34
